Results reported in PMC12848948.

Sequences of proteins named here, by UniProt entry; tags and fusion partners are left off. A change or cut given only in a name is not applied to a line headed by its entry.
UniProt P43351: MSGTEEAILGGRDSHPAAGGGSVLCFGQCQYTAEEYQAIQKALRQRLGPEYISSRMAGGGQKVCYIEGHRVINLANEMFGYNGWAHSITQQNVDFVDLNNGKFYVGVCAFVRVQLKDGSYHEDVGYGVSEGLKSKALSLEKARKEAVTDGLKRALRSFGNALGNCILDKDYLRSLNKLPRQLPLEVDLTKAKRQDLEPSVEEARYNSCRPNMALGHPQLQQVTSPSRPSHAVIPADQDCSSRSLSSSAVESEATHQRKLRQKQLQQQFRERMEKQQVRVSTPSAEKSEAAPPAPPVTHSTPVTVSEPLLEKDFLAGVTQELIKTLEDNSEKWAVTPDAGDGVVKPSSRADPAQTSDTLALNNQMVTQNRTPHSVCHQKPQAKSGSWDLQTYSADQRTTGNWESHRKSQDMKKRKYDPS

What was measured:
RAD52 (human) = RAD52 (human) (UniProt P43351); experiment: fluorescence microscopy (recruitment to condensates); conditions: 2.5 uM RAD52, 15 mM NaCl, variable ssDNA ratio, RAD51 fibrils: 25 mM Tris-HCl pH 7.5, 100 mM salt (text truncated), recombinant protein, protein details: 6xHis, label: Cy3 in RAD52-ssDNA mixtures, single-stranded DNA
RAD51 + RAD52 = experiment: fluorescence microscopy (fibril formation); conditions: 15 mM NaCl, RAD51 fibrils: 25 mM Tris-HCl pH 7.5, 100 mM salt (text truncated), recombinant protein, protein details: 6xHis, single-stranded DNA

## TTTTTTTTTTTTTTTTTTTTTTTTTTTTTTTTTTTTTTTT [dT40]
RAD52 (human)
  binding result: binds
RAD51 + RAD52; 5 uM RAD51, 5 uM RAD52, 2.5 uM dT40, no crowder, label: Cy3 in RAD52-ssDNA mixtures
  binding result: binds

## TTTTTTTTTTTTTTTTTTTTTTTTTTTTTT [T30]
RAD51 + RAD52; 5 uM RAD51, 5 uM RAD52, 2.5 uM T30, 25 mM Tris-HCl pH 7.5
  binding result: binds

For at least one entry, the source does not settle the construct or the ends of the probe. At least one verdict was read from the data and is not stated in words by the source.
